Test results published in article PMC11098506.
Where a chain is given by its changes, count along the chain named. Numbers in names are those of the source. Results are given in words; binding and its absence hold for the method and conditions named. Binding seen in cells or lysates may run through a third protein. Binding calls can cover weak binding; strength is not graded here.

Sequences of proteins named here, by UniProt entry; tags and fusion partners are left off. A change or cut given only in a name is not applied to a line headed by its entry.
UniProt Q60930: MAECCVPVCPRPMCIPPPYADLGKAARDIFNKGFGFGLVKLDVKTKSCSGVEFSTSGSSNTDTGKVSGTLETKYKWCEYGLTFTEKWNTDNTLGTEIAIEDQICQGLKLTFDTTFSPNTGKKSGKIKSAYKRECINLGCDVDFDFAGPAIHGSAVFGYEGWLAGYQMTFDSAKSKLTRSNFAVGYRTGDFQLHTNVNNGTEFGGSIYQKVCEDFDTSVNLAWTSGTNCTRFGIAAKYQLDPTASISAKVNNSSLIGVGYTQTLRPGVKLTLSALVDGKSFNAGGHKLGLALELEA

B1: BAK^R88C (on BAK ΔCys) (protein, UniProt Q16611 1-211)
chain: MASGQGPGPPRQESGEPALPSASEEQVAQDTEEVFRSYVFYRHQQEQEAEGVAAPADPEMVTLPLQPSSTMGQVGRQLAIIGDDINRCYDSEFQTMLQHLQPTAENAYEYFTKIATSLFESGINWGRVVALLGFGYRLALHVYQHGLTGFLGQVTRFVVDFMLHHSIARWIAQRGGWVAALNLGNGPILNVLVVLGVVLLGQFVVRRFFKS
B2: BAK^N124C (on BAK ΔCys) (protein, UniProt Q16611 1-211)
chain: B1 chain with C88R, N124C
B3: BAK S117C (on BAK ΔCys) (protein, UniProt Q16611 1-211)
chain: B1 chain with C88R, S117C
B4: BAK S121C (on BAK ΔCys) (protein, UniProt Q16611 1-211)
chain: B1 chain with C88R, S121C
B5: BAK^Y89C (on BAK ΔCys) (protein, UniProt Q16611 1-211)
chain: B1 chain with C88R, Y89C
B6: BAK D84C (on BAK ΔCys) (protein, UniProt Q16611 1-211)
chain: B1 chain with D84C, C88R
B7: BAK I85C (on BAK ΔCys) (protein, UniProt Q16611 1-211)
chain: B1 chain with I85C, C88R
B8: BAK E92C (on BAK ΔCys) (protein, UniProt Q16611 1-211)
chain: B1 chain with C88R, E92C
B9: BAK^ΔCys (C14S/C166S) (protein, UniProt Q16611 1-211)
chain: B1 chain with C88R
B10: BAK G4C labelled with PEG-maleimide (5 kDa) (protein, UniProt Q16611 1-211)
chain: B1 chain with G4C, C88R
modifications: 5 kDa PEG-maleimide on the cysteine at 4
B11: BAK^G4C (on BAK ΔCys) (protein, UniProt Q16611 1-211)
chain: B1 chain with G4C, C88R
B12: BAK^R156C (on BAK ΔCys) (protein, UniProt Q16611 1-211)
chain: B1 chain with C88R, R156C
B13: BAK R156C labelled with PEG-maleimide (5 kDa) (protein, UniProt Q16611 1-211)
chain: B1 chain with C88R, R156C
modifications: 5 kDa PEG-maleimide on the cysteine at 156

target: HA-VDAC2^A172C (on a VDAC2 ΔCys background) (mouse) (UniProt Q60930); assay: cross-linking; disulphide linkage of single cysteines with 1 mM CuPhe, 30 min at 4°C, on heavy membrane fractions of Bax-/-Bak-/-Vdac2-/- MEFs; non-reducing SDS-PAGE and immunoblot

binding, binds:
B1, B2, B3, B4, B5, B6, B7, B8

target: HA-VDAC2^ΔCys (mouse) (UniProt Q60930); assay: co-IP; HA-VDAC2 ΔCys precipitated with anti-HA beads from 1% digitonin-solubilised membrane fractions of Bak-/-Bax-/-Vdac2-/- MEFs, with or without labelling by 0.5 mM 5 kDa PEG-maleimide (30 min, room temperature) beforehand

binding, binds:
B9, B2, B10, B11, B12, B13
